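Human melanoma cell lines in 1,536-well plates were treated with two drugs together for 72 h, then fixed, stained and imaged. Each value is the cleaved-PARP-positive fraction of nuclei relative to DMSO-treated wells, in %, so that 100 equals the control and higher values mean more apoptosis. Every drug was used at one fixed concentration, the higher of two screened. These are primary screening values without error estimates. The marker varies much from line to line, for technical or biological reasons.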 This is part of the screen, not chosen by result. An entry leaves out what has no value listed here. A dash means that no value is listed here.

Compounds and concentrations:
GSK650394: O=C(O)c1ccc(-c2c[nH]c3ncc(-c4ccccc4)cc23)cc1C1CCCC1 at 800 nM
ENMD-2076: Cc1cc(Nc2cc(N3CCN(C)CC3)nc(/C=C/c3ccccc3)n2)n[nH]1 at 200 nM
nilutamide: CC1(C)NC(=O)N(c2ccc([N+](=O)[O-])c(C(F)(F)F)c2)C1=O at 5000 nM
GW441756: Cn1cc(/C=C2\C(=O)Nc3cccnc32)c2ccccc21 at 2000 nM
GW9662: O=C(Nc1ccccc1)c1cc([N+](=O)[O-])ccc1Cl at 10000 nM
dovitinib: CN1CCN(c2ccc3nc(-c4c(N)c5c(F)cccc5[nH]c4=O)[nH]c3c2)CC1 at 500 nM
SU6656: CN(C)S(=O)(=O)c1ccc2c(c1)/C(=C/c1cc3c([nH]1)CCCC3)C(=O)N2 at 2000 nM
sunitinib: CCN(CC)CCNC(=O)c1c(C)[nH]c(/C=C2\C(=O)Nc3ccc(F)cc32)c1C at 2000 nM

Drugs | WM3619 | MEL-HO | COLO 792 | WM1745 | SK-MEL-28 | A101D
GSK650394 + GW441756 | 98.7 | 114 | 61.7 | 122 | 163 | 42.3
sunitinib + dovitinib | 157 | 183 | 397 | 272 | 57.2 | 97.3
sunitinib + GSK650394 | 86.8 | 86.1 | 726 | 171 | 297 | 160
GSK650394 + SU6656 | 290 | 87.7 | 182 | 110 | 126 | 54.1
GSK650394 + GW9662 | 174 | 387 | 119 | 113 | 113 | 63.2
ENMD-2076 + GSK650394 | 378 | 94.3 | 111 | 95.1 | 106 | 239
ENMD-2076 + GW9662 | 161 | 95.0 | 63.2 | - | 265 | 111
ENMD-2076 + SU6656 | 146 | 80.2 | 179 | 322 | 212 | 196
dovitinib + SU6656 | 144 | 54.3 | 96.6 | 273 | 73.1 | 236
GW441756 + dovitinib | 119 | 146 | 99.3 | - | 124 | 162
GW441756 + ENMD-2076 | 197 | 133 | 146 | - | 150 | 128
GW441756 + nilutamide | 108 | 87.1 | 19.4 | 114 | 97.0 | 48.1
GSK650394 + dovitinib | 173 | 57.6 | 186 | 1860 | 53.2 | 152
ENMD-2076 + nilutamide | 106 | 192 | 71.3 | 118 | 172 | 118
sunitinib + SU6656 | 128 | 83.9 | 286 | 165 | 124 | 156
GW9662 + GW441756 | 112 | 208 | 110 | 131 | 120 | 75.6
dovitinib + ENMD-2076 | 125 | 209 | 224 | 137 | 49.4 | 93.9
GW9662 + dovitinib | 256 | 197 | 113 | - | 200 | 139
nilutamide + sunitinib | 81.8 | 81.9 | 445 | 145 | 275 | 149
SU6656 + nilutamide | 94.3 | 80.1 | 108 | 132 | 77.8 | 67.6
GW441756 + SU6656 | 128 | 89.8 | 96.9 | 184 | 107 | 130

2 of the entries, repeated:

{"drugs": "GSK650394 + GW441756", "WM3619": 98.7, "MEL-HO": 114, "COLO 792": 61.7, "WM1745": 122, "SK-MEL-28": 163, "A101D": 42.3}
{"drugs": "GSK650394 + dovitinib", "WM3619": 173, "MEL-HO": 57.6, "COLO 792": 186, "WM1745": 1860, "SK-MEL-28": 53.2, "A101D": 152}

Data from the primary screen of doi:10.1371/journal.pone.0140310, rounded.